Results are given in words; binding and its absence hold for the method and conditions named. Some results given as binding are weak or reduced against the parent protein; the word gives no strength.
Target: T1, AtMC1 (Arabidopsis thaliana metacaspase 1) (Arabidopsis thaliana) (UniProt Q7XJE6)
T1 sequence: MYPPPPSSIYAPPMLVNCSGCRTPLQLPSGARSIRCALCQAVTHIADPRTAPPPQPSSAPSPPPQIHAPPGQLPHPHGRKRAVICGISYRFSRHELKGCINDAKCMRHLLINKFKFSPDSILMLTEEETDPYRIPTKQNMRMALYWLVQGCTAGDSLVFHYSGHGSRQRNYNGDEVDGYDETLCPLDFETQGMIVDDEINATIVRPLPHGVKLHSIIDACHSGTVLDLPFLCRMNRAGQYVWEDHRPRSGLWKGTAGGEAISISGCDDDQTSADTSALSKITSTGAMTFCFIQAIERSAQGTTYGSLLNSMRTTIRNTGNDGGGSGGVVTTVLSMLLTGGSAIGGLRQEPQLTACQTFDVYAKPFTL
Assay: two-hybrid; baits in pGBKT7 (pBD), preys in pGADT7 (pAD), co-transformed in pairs into yeast strain AH109; selected on SD/-Leu-Trp, then tested on SD/-Leu-Trp-His-Ade with X-α-Gal

binding: binds
B1: Arabidopsis lesion simulating disease 1 (LSD1) (protein, UniProt P94077 1-189)
chain: MKVADMQDQLVCHGCRNLLMYPRGASNVRCALCNTINMVPPPPPPHDMAHIICGGCRTMLMYTRGASSVRCSCCQTTNLVPAHSNQVAHAPSSQVAQINCGHCRTTLMYPYGASSVKCAVCQFVTNVNMSNGRVPLPTNRPNGTACPPSTSTSTPPSQTQTVVVENPMSVDESGKLVSNVVVGVTTDKK

From publication PMC4882554
